Here are results for two substances from patent publication US20220259298A1 (KYOTO UNIVERSITY, published 2022).

By UniProt entry, the sequences of proteins in these tests, tags left out. Where a name states a change or a piece, a line headed by the entry shows the natural chain unless it says otherwise. Residues count along the entry.
UniProt O75581: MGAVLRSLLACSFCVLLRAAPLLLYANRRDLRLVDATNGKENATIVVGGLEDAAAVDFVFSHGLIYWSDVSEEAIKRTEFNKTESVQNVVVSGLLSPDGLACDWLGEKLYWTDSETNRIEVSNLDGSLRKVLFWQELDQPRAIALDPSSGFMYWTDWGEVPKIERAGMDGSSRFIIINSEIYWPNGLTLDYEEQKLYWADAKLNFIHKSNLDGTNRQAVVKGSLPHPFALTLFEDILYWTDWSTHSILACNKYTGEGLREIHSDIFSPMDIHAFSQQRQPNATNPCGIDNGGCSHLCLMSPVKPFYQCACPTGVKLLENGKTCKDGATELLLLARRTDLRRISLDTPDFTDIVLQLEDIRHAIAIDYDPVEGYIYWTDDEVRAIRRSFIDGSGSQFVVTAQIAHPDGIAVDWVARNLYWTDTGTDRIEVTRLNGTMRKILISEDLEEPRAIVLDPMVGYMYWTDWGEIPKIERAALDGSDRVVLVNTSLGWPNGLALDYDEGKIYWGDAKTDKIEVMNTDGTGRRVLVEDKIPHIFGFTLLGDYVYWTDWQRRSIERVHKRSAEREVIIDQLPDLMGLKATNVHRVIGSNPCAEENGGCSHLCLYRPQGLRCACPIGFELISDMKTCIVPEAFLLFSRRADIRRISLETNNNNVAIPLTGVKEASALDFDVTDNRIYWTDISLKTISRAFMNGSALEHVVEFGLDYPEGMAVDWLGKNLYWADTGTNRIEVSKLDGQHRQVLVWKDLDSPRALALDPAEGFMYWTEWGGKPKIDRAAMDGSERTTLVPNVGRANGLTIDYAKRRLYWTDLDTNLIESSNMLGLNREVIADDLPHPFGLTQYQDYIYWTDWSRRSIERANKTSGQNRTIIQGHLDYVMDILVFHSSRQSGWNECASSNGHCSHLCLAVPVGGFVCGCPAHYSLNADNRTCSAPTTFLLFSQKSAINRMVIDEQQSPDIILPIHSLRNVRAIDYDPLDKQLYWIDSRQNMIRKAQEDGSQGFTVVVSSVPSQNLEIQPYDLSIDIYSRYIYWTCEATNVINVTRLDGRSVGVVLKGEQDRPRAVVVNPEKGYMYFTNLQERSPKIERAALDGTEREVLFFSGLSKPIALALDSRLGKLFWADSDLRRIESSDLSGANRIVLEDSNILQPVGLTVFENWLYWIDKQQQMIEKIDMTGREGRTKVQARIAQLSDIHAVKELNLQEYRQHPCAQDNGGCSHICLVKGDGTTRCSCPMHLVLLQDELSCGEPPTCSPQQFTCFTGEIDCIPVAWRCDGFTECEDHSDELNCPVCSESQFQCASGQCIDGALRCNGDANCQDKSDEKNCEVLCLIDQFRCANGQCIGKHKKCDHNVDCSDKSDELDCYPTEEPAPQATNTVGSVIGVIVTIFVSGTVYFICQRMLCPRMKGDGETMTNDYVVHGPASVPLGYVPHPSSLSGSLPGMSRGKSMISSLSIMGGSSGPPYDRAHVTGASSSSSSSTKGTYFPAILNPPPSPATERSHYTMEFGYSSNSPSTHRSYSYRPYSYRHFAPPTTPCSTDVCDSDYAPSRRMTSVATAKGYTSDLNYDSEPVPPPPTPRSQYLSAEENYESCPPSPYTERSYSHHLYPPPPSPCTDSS
UniProt Q9CQN4, residues 24-206: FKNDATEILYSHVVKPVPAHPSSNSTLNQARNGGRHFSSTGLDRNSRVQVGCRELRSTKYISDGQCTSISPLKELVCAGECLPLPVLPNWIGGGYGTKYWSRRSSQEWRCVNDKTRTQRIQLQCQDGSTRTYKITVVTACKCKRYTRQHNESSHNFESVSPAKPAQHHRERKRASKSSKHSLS

Test [1] concerns the target LRP6-E1E2 (a region of amino acid numbers 1 to 629 of human LRP6, fused to a His tag) (human) (UniProt O75581). The test is described as follows: co-immunoprecipitation with the anti-PA tag antibody NZ-1, SDS-PAGE with Oriole fluorescence staining.
In test [2] the target is N-terminal PA-tagged mouse USAG-1 (WISE) recombinant protein (mouse) (UniProt Q9CQN4). Briefly: pull-down: mouse PA-USAG-1 held on Protein A sepharose by the named anti-USAG-1 antibody (or on NZ-1), then LRP6-E1E2 supernatant; SDS-PAGE, Oriole stain.

No constants are given. Whether binding was seen depends on the method and setting. In cells and extracts the contact can be indirect. A result given as binding can be weak or reduced; the word gives no strength.

In the case of “N-terminal PA-tagged mouse USAG-1 (WISE) recombinant protein (from UniProt Q9CQN4 24-206) (ligand)”, in test [1], the binding result is reported as “binds”.
As to “LRP6-E1E2 (a region of amino acid numbers 1 to 629 of human LRP6, fused to a His tag) (from UniProt O75581) (receptor)”, in test [2], the binding result is given as “binds”.
